Source: US4434290A, “Pyrido (4,3-B) carbazoles substituted in the 1 position by a polyamine chain” (priority 1978, dated 1984)

Tested on: leukemia L1210
Assay: Leukemia L1210 in vivo, measurement of survival time (Table XII)
Set-up: species or system B6 D2 Fl (C 57 Bl/6×DBA/2) Fl mice; MST: unit not given here
Details: for Death interval (mice) / ILS % / MST: 10^5 cells, i.p.
Description: The following pharmacological trials relate to the effects of the compounds of the invention on leukemia L1210 in vivo.
G. Proc. Nat. Acad. Sci. 1972, 69, 1042-1047 and Schepartz S., Screening 1971, Cancer Chemother. Part 3; Vol. 2, p. 3].
The properties were determined by the curative action inoculated experimental leukemia L1210. This leukemia was maintained on B6 D2 Fl (C 57 Bl/6×DBA/2) Fl mice in the proportion of 6 or 10 mice per experimental batch. The compounds to be tested were injected by the intraperitoneal route one or several days after inoculation of the cells (1 injection only). […] The death interval was determined, the first figure of the Table indicating the date of the first mouse death and the second the date of the last mouse death. The mean survival time was also measured (MST). A characteristic value is the percentage of increased life span (ILS %). This value (Cancer. Res. 1971, 31, 1883-1887) is the ratio: [formula] where S^t =survival of treated animals and
S^c =survival of control animals.

Question: With `COc1ccc2[nH]c3c(C)c4ccncc4c(C)c3c2c1` [Compound 9-MeO, 9-methoxy-ellipticine, reference compound] as the compound, how does the “Death interval (mice)” value (17.5 mg/kg, day +1) read?
Answer: 10-13

Question: And the ILS % (17.5 mg/kg, day +1)?
Answer: 6.6%

Question: And the MST (17.5 mg/kg, day +1)?
Answer: 11.2

Question: What about the “Death interval (mice)” value (20 mg/kg, day +2) of the same compound?
Answer: 15-21

Question: What about the ILS % (20 mg/kg, day +2) of the same compound?
Answer: 51.7%

Question: And the MST (20 mg/kg, day +2)?
Answer: 17.6

Question: What about the “Death interval (mice)” value (20 mg/kg, day +3) of the same compound?
Answer: 18-26

Question: And the ILS % (20 mg/kg, day +3)?
Answer: 80%

Question: What about the MST (20 mg/kg, day +3) of the same compound?
Answer: 20.9

Question: What about the “Death interval (mice)” value (35 mg/kg, day +1) of the same compound?
Answer: 11-13

Question: What about the ILS % (35 mg/kg, day +1) of the same compound?
Answer: 7.6%

Question: What about the MST (35 mg/kg, day +1) of the same compound?
Answer: 11.3

Question: What about the “Death interval (mice)” value (87.5 mg/kg, day +1) of the same compound?
Answer: 13-15

Question: What about the ILS % (87.5 mg/kg, day +1) of the same compound?
Answer: 26.6%

Question: What about the MST (87.5 mg/kg, day +1) of the same compound?
Answer: 13.3

Question: And the “increase in the life span (ILS)” value (text: dose closest to the toxic dose, same conditions)?
Answer: 26%
